Data on 39 targets can be found in the supplement of paper PMC10849652.

By UniProt entry, the sequences of proteins in these tests, tags left out. Where a name states a change or a piece, a line headed by the entry shows the natural chain unless it says otherwise.
UniProt Q9NU22: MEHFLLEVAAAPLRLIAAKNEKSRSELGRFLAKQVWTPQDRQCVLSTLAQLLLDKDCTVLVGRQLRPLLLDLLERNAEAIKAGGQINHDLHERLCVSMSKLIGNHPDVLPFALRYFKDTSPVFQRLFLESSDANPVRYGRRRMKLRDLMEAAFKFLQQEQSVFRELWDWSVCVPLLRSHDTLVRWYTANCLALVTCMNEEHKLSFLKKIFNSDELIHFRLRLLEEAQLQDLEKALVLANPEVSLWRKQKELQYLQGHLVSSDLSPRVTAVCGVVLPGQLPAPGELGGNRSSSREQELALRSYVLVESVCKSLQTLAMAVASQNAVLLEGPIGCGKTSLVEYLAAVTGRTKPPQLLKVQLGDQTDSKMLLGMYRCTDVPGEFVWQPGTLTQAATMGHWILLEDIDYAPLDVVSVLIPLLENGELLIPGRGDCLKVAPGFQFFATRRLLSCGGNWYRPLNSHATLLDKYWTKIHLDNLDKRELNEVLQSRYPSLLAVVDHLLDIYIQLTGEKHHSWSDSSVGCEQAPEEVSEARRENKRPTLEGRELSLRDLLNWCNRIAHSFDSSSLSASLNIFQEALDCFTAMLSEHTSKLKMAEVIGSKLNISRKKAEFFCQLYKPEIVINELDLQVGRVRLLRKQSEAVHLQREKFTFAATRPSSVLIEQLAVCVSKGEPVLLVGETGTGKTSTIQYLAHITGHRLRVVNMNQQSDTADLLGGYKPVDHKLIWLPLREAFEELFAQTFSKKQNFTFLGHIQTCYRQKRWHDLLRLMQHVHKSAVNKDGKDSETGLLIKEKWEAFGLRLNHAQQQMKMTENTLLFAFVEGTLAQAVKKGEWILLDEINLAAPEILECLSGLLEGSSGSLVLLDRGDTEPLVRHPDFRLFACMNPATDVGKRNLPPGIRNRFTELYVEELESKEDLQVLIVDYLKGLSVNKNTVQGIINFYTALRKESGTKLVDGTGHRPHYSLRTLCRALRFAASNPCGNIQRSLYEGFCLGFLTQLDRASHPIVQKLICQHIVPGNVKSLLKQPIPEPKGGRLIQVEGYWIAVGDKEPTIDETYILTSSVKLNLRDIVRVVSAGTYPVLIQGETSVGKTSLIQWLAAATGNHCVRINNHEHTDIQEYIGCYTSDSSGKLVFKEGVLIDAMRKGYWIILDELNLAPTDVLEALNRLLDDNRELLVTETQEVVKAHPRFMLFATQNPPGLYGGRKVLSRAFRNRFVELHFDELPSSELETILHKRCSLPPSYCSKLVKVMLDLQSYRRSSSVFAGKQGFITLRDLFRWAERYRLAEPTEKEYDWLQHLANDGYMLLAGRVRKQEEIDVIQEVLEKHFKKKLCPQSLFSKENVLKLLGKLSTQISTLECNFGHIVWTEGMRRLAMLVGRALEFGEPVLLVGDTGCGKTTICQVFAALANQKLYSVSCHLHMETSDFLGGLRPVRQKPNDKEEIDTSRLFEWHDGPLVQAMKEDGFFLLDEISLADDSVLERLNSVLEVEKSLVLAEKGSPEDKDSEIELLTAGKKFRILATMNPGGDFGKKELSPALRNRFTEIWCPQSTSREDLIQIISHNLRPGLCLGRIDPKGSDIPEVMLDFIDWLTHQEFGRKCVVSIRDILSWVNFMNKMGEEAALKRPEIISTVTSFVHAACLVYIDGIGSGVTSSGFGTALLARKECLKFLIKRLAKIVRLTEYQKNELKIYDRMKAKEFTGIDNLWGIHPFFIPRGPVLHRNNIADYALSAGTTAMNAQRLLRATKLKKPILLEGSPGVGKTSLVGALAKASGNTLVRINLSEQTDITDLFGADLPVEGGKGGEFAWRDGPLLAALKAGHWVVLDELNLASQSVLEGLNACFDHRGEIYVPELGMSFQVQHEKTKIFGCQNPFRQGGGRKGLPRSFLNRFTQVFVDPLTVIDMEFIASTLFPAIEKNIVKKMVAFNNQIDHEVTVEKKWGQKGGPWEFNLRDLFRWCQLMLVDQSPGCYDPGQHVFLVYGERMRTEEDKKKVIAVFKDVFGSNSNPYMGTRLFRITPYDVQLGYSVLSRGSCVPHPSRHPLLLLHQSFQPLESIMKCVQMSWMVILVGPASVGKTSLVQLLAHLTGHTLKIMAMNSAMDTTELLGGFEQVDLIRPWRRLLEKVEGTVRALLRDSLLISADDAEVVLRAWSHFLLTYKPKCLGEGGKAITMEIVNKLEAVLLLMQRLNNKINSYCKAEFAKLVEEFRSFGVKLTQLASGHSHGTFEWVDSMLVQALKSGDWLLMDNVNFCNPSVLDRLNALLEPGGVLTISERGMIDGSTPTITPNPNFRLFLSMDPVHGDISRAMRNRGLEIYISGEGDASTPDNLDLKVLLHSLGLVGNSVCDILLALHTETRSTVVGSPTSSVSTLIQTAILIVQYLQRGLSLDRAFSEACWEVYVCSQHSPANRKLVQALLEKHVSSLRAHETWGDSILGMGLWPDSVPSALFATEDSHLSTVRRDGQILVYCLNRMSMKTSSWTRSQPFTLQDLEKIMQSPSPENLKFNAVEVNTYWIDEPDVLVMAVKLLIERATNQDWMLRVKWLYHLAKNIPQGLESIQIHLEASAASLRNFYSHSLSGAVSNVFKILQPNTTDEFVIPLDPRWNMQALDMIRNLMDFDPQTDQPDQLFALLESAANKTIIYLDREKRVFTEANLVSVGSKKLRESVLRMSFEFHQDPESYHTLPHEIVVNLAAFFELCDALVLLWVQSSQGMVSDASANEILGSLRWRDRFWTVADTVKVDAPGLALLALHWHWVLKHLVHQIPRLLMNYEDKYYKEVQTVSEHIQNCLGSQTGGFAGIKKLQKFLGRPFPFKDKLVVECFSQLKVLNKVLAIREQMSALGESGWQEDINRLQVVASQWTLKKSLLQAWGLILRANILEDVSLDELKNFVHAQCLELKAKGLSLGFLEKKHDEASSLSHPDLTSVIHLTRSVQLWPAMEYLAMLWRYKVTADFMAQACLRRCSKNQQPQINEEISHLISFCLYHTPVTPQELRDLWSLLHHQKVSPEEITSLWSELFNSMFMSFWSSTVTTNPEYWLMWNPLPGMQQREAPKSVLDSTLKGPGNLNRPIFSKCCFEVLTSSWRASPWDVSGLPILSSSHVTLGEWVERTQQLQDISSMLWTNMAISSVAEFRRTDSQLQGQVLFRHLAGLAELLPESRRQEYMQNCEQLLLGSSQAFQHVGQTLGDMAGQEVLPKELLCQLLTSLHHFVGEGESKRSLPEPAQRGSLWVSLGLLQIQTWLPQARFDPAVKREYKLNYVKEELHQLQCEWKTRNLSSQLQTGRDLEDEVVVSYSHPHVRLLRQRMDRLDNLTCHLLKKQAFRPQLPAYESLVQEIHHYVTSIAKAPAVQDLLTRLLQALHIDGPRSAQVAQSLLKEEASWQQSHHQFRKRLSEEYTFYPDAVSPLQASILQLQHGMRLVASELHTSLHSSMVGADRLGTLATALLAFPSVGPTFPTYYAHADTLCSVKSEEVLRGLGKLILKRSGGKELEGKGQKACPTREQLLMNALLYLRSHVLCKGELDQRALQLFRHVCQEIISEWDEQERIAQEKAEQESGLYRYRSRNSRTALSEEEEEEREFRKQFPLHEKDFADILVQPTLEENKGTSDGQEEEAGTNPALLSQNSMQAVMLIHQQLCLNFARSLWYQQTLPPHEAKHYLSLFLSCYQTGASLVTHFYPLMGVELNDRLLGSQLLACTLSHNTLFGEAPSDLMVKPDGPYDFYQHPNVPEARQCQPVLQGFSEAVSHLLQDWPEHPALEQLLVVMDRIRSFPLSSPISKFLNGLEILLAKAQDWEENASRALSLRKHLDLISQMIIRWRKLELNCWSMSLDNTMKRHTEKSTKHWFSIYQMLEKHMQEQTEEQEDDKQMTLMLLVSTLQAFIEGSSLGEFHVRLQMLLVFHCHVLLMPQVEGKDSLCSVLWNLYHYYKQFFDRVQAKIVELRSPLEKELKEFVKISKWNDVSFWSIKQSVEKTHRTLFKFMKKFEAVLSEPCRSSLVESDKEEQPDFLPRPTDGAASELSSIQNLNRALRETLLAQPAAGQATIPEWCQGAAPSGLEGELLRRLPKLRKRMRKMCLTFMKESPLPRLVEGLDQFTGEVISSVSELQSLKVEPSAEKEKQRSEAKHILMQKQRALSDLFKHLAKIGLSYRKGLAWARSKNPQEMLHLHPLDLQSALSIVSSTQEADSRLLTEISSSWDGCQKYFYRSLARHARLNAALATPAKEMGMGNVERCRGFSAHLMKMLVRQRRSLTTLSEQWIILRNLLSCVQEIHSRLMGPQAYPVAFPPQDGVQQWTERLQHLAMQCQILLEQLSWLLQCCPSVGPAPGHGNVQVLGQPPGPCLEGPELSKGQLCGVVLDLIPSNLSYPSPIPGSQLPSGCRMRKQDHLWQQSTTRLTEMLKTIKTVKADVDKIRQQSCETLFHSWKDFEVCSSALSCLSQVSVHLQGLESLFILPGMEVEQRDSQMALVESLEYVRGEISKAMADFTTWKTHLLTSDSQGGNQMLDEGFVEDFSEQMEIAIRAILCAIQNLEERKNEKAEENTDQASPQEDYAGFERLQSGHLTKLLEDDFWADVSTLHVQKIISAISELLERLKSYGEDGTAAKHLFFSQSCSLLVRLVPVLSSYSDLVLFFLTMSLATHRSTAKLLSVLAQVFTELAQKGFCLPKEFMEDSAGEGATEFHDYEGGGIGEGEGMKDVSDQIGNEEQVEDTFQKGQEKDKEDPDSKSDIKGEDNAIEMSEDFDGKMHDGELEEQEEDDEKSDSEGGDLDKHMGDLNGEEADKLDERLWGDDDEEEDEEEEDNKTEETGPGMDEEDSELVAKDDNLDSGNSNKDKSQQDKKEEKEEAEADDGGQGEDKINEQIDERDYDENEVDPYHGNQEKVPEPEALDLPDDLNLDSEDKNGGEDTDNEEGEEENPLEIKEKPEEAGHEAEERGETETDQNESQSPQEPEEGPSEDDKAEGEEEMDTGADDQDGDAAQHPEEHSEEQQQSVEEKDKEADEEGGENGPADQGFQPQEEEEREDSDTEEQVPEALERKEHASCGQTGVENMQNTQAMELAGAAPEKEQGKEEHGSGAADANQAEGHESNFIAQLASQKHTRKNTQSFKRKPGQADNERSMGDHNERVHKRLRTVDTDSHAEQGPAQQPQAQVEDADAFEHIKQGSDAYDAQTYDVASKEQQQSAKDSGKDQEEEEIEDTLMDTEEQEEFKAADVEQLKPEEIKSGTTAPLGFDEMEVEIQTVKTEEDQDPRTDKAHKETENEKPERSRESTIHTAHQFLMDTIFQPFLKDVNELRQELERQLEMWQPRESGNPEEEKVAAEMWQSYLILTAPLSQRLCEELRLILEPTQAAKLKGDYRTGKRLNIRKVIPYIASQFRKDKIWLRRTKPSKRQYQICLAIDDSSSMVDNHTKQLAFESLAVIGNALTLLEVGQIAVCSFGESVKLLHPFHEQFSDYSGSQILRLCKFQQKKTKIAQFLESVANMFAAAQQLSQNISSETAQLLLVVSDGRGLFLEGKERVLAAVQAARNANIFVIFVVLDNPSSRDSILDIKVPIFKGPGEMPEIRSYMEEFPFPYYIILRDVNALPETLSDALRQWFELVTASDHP
UniProt Q9NR56: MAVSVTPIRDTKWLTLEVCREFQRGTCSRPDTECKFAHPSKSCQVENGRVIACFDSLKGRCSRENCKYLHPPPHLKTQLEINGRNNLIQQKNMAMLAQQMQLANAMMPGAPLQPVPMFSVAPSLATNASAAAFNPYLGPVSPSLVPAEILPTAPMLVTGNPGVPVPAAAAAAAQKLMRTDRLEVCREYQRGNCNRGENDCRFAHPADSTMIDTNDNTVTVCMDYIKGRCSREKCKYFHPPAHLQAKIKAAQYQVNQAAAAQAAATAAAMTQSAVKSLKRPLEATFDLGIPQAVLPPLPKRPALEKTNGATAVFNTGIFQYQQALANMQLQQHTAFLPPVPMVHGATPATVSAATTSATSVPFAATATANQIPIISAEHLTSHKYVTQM
UniProt Q8N6Q8: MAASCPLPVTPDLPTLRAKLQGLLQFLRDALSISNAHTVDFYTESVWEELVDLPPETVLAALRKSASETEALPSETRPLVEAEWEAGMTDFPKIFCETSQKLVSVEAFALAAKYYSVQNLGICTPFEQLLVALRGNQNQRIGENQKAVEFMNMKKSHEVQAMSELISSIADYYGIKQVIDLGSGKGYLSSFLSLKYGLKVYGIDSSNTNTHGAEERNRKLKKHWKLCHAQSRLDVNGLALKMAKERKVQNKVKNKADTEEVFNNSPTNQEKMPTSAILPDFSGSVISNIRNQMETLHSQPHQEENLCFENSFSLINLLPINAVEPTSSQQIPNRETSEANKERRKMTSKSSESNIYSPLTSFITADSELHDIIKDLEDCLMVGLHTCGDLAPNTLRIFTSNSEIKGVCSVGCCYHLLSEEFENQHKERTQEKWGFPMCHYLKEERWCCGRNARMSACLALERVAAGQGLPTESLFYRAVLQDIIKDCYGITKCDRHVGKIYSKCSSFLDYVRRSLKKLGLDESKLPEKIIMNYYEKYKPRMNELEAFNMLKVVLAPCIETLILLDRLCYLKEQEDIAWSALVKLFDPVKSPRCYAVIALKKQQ

This is one part of the list.

Compound in one test: CS(=O)(=O)c1ccc(-c2cnc(N)c(C(=O)Nc3ccccc3)n2)cc1
As to the kind of experiment: log2 fold change, soluble protein after heating vs DMSO (PISA); higher = thermal stabilisation; K562 cells, 10 uM, 30 min; active = over 0.2 and 3.5 SD of the protein, either way, in both replicates (recomputed). The procedure, abridged:
(§1)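 For each measurement, 10 μM compound was applied for 30 min to K562 cells at 2×10^6 cells/mL. Aliquots were heated for 3 min across 48°C-58°C, pooled, and extracted in PBS with 0.5% NP-40 at 4°C; the supernatant after 21,000xg for 90 min was soluble protein. This was quantified by TMTpro 16plex LC-MS/MS with channel sums equalised, and thermal stability was reported relative to control samples from duplicates, on a log2 fold-change scale.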
In the case of MIB1 (UniProt Q86YT6), the log2 fold change was inactive: -0.108.
Still for that read-out and setting: for MCM2 (UniProt P49736) the value was inactive: 0.011.
In the case of MESD (UniProt Q14696), the log2 fold change was inactive: -0.016.
Same read-out and setting: the value for MCRIP1 (UniProt I3L4Q0) was inactive: 0.002; that for MDN1 (UniProt Q9NU22) was inactive: -0.072; that for MED23 (UniProt Q9ULK4) was inactive: 0.
On to METTL7A (UniProt Q9H8H3), for which the log2 fold change is inactive: 0.053.
As for MCM5 (UniProt P33992), the log2 fold change is inactive: 0.013.
Same read-out and setting: for METTL5 (UniProt Q9NRN9) the value was inactive: 0.011; for MECR (UniProt Q9BV79), inactive: 0.008; for METTL2B (UniProt Q6P1Q9), inactive: 0.076.
For MBOAT1 (UniProt Q6ZNC8), the log2 fold change is inactive: 0.065.
Same read-out and setting: the value for MEF2C isoform 5 (UniProt Q06413) was inactive: -0.014.
Same read-out and setting: the value for MAT2B (UniProt Q9NZL9) was inactive: 0.031; that for METTL21A (UniProt Q8WXB1) was inactive: -0.039.
The same measure, in the same setting: for MERTK (UniProt Q12866) the value was inactive: 0.067; for MCM3 isoform 2 (UniProt P25205), inactive: 0.013; for MCCC2 (UniProt Q9HCC0), inactive: -0.004.
MED30 (UniProt Q96HR3): the log2 fold change is inactive: -0.084.
On the same count and under the same terms, for METTL6 (UniProt Q8TCB7) the value was inactive: 0.084; for MED18 (UniProt Q9BUE0), inactive: -0.049.
The same measure, in the same setting: for MFAP1 (UniProt P55081) the value was inactive: 0.013; for MCCC1 (UniProt Q96RQ3), inactive: 0.077; for MGAT4B isoform 3 (UniProt Q9UQ53), inactive: 0.013.
As to MED14 (UniProt O60244), the log2 fold change was inactive: 0.075.
The same measure, in the same setting: the value for MFSD10 (UniProt Q14728) was inactive: 0.038; that for METAP1 (UniProt P53582) was inactive: 0.009; that for MGST3 (UniProt O14880) was inactive: 0.058.
With METAP2 (UniProt P50579), the log2 fold change was inactive: 0.069.
The same measure, in the same setting: the value for MCRIP2 (UniProt Q9BUT9) was inactive: 0.106; that for MBNL1 (UniProt Q9NR56) was inactive: 0.005; that for MEAF6 isoform 3 (UniProt Q9HAF1) was inactive: -0.053.
The same measure, in the same setting: for MFSD14B (UniProt Q5SR56) the value was inactive: 0.059.
For the target MBD3 (UniProt O95983), the log2 fold change was inactive: -0.032.
On to MED15 (UniProt Q96RN5), for which the log2 fold change is inactive: 0.043.
The same measure, in the same setting: the value for MED24 (UniProt O75448) was inactive: -0.051; that for MEF2D (UniProt Q14814) was inactive: 0.051; that for METTL25 (UniProt Q8N6Q8) was inactive: 0.045.
The same measure, in the same setting: the value for MED10 (UniProt Q9BTT4) was inactive: -0.029.

Compound in a further test: C[C@@H](Oc1cc(-c2cnn(C3CCNCC3)c2)cnc1N)c1c(Cl)ccc(F)c1Cl [crizotinib]
The test is described as above. The procedure, abridged:
as §1
With MIB1 (UniProt Q86YT6), the log2 fold change was inactive: -0.12.
Regarding MCM2 (UniProt P49736), the log2 fold change is inactive: -0.02.
MESD (UniProt Q14696): the log2 fold change is inactive: 0.095.
For the target MCRIP1 (UniProt I3L4Q0), the log2 fold change is inactive: 0.037.
Still for that read-out and setting: the value for MDN1 (UniProt Q9NU22) was inactive: -0.135; that for MED23 (UniProt Q9ULK4) was inactive: -0.079.
For METTL7A (UniProt Q9H8H3), the log2 fold change was inactive: 0.133.
Same read-out and setting: for MCM5 (UniProt P33992) the value was inactive: -0.004; for METTL5 (UniProt Q9NRN9), inactive: 0.01; for MECR (UniProt Q9BV79), inactive: 0.089.
The same measure, in the same setting: for METTL2B (UniProt Q6P1Q9) the value was inactive: -0.235.
On to MBOAT1 (UniProt Q6ZNC8), for which the log2 fold change is inactive: 0.015.
On the same count and under the same terms, the value for MEF2C isoform 5 (UniProt Q06413) was inactive: 0.029; that for MAT2B (UniProt Q9NZL9) was inactive: 0.029.
Same read-out and setting: the value for METTL21A (UniProt Q8WXB1) was inactive: 0.063; that for MERTK (UniProt Q12866) was inactive: -0.106.
In the case of MCM3 isoform 2 (UniProt P25205), the log2 fold change was inactive: -0.001.
On the same count and under the same terms, for MCCC2 (UniProt Q9HCC0) the value was inactive: 0.028; for MED30 (UniProt Q96HR3), inactive: -0.021; for METTL6 (UniProt Q8TCB7), inactive: -0.021.
The same measure, in the same setting: for MED18 (UniProt Q9BUE0) the value was inactive: -0.105; for MFAP1 (UniProt P55081), inactive: 0.014; for MCCC1 (UniProt Q96RQ3), inactive: 0.046.
Still for that read-out and setting: the value for MGAT4B isoform 3 (UniProt Q9UQ53) was inactive: -0.018.
In the case of MED14 (UniProt O60244), the log2 fold change is inactive: -0.065.
On the same count and under the same terms, the value for MFSD10 (UniProt Q14728) was inactive: -0.011; that for METAP1 (UniProt P53582) was inactive: 0.013; that for MGST3 (UniProt O14880) was inactive: 0.119.
Same read-out and setting: the value for METAP2 (UniProt P50579) was inactive: 0.014.
Same read-out and setting: the value for MCRIP2 (UniProt Q9BUT9) was inactive: -0.003; that for MBNL1 (UniProt Q9NR56) was inactive: 0.046; that for MEAF6 isoform 3 (UniProt Q9HAF1) was inactive: 0.014.
As for MFSD14B (UniProt Q5SR56), the log2 fold change is inactive: 0.027.
The same measure, in the same setting: the value for MBD3 (UniProt O95983) was inactive: -0.067; that for MED15 (UniProt Q96RN5) was inactive: -0.055.
Still for that read-out and setting: for MED24 (UniProt O75448) the value was inactive: -0.069; for MEF2D (UniProt Q14814), inactive: 0.145.
The same measure, in the same setting: the value for METTL25 (UniProt Q8N6Q8) was inactive: 0.083.
For the target MED10 (UniProt Q9BTT4), the log2 fold change was inactive: 0.12.
